Laboratory results from article PMC9462479.

Protein sequences, listed by entry. Tags and fused reporters are not part of them.
UniProt P45481: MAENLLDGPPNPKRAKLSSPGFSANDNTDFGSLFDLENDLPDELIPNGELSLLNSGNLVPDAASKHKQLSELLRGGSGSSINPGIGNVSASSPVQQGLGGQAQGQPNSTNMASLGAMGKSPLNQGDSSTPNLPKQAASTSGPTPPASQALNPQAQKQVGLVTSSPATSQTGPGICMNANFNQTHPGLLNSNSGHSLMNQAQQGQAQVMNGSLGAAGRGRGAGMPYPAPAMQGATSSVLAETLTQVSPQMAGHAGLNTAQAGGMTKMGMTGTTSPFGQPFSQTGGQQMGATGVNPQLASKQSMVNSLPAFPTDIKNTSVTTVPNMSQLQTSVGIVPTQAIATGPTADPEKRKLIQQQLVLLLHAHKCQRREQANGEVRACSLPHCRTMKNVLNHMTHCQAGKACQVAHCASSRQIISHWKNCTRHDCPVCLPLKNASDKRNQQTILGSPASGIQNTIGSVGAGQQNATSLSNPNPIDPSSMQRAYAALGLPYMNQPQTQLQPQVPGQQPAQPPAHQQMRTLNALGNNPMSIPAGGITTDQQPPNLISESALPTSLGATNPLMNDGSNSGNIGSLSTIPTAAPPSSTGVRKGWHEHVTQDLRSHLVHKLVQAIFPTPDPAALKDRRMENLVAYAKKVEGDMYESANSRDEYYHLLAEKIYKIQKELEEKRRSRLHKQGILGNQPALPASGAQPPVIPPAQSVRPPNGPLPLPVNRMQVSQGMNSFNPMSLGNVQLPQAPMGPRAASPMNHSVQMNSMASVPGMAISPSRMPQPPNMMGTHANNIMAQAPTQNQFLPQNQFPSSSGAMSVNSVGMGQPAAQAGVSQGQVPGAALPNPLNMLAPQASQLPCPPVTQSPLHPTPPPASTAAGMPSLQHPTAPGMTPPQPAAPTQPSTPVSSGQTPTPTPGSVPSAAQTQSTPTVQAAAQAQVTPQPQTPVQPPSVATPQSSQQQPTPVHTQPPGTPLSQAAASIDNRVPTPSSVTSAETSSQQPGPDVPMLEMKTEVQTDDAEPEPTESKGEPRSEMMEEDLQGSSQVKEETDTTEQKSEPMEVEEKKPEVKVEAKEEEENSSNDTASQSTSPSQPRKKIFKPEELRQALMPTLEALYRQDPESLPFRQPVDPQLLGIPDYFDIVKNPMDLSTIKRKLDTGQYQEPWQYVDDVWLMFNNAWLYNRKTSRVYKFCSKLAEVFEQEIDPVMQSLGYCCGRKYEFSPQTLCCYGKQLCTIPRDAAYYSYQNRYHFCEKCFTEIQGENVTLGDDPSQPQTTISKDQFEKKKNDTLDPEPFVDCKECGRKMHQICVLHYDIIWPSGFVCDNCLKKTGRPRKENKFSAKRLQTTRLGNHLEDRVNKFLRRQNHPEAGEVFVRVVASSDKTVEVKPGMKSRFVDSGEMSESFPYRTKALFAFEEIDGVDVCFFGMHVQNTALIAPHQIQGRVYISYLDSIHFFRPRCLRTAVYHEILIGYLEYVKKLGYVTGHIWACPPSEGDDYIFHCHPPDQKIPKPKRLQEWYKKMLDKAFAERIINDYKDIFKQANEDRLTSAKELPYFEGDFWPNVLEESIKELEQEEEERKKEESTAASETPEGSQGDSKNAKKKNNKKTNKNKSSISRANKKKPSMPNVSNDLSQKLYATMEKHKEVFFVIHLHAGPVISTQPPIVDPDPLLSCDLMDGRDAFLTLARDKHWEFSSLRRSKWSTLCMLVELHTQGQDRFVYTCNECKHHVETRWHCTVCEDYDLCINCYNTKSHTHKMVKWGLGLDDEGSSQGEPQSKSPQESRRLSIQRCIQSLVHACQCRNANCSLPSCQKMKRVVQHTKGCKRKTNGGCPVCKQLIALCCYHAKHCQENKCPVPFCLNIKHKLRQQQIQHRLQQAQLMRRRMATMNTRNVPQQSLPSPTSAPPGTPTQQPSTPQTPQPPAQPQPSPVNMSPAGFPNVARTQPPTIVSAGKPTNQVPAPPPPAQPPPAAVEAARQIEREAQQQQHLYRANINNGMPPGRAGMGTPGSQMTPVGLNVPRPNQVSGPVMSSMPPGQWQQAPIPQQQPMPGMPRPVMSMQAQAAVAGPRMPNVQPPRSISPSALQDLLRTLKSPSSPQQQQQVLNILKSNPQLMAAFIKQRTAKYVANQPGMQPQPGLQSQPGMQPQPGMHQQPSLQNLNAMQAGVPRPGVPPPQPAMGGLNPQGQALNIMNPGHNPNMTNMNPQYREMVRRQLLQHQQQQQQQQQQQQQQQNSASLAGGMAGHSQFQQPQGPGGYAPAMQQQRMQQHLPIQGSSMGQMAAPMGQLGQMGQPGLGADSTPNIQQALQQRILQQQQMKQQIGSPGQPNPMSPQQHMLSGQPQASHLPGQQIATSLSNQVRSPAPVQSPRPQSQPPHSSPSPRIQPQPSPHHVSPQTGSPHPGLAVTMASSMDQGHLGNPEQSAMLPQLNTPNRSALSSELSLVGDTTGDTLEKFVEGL
UniProt Q8VBV4: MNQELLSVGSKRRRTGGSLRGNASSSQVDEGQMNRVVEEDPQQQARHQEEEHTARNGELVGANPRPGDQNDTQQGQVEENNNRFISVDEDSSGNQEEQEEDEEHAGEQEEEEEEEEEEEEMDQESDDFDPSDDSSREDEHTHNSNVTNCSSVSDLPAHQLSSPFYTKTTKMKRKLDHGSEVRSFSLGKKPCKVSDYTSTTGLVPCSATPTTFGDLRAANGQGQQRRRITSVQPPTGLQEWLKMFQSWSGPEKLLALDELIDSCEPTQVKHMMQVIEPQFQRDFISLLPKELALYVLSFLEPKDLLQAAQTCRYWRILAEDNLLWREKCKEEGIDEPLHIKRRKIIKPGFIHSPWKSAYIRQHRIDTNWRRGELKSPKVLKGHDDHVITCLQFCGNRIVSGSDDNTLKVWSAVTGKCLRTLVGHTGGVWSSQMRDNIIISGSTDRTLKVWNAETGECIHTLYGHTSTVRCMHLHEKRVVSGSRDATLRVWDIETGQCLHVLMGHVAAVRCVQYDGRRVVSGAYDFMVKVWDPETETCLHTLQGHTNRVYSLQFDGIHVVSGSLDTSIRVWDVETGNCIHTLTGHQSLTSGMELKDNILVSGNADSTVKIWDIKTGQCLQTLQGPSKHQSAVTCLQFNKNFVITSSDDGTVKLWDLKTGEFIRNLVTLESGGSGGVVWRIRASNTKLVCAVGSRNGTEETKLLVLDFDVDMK

Target: T1, FLAG-SREBF1(N), N-terminus of mouse SREBF1, expressed in 3T3-L1–TetON-FLAG-Srebf1(N) adipocytes (mouse) (UniProt Q9WTN3)
T1 sequence: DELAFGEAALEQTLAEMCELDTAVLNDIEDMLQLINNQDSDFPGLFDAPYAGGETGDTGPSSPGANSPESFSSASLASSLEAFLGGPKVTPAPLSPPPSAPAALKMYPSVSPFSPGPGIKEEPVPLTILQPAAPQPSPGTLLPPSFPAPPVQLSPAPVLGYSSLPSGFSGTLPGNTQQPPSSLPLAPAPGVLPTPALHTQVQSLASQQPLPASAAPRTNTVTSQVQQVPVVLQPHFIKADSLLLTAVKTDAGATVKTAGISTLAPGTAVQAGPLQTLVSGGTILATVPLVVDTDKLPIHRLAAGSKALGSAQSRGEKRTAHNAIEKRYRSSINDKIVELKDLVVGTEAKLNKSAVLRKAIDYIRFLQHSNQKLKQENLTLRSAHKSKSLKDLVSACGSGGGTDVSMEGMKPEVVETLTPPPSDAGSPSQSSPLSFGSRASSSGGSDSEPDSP
Assay: affinity purification with mass spectrometry; FLAG-tagged bait immunoprecipitated with anti-FLAG M2 Affinity Gel from dialysed nuclear extracts (150 mM KCl, 0.05% NP40) of differentiated 3T3-L1 TetON cells treated with 10 μg/mL doxycycline; eluted with FLAG peptide; LC-MS/MS

binding | Substance
binds | CREBBP, endogenous in 3T3-L1 adipocytes (from UniProt P45481 1-2441)
binds | FBXW7, endogenous in 3T3-L1 adipocytes (from UniProt Q8VBV4 1-710)

No constants are given. Whether binding was seen depends on the method and setting. Binding seen in cells or lysates may run through a third protein. A yes stands for co-enrichment or nearness to the bait. Other partners may have been found. Where a sequence is shown, tags or fusion partners need not be part of it.
